The values below are quoted from earlier work in PMC5111108, “An insecticide resistance-breaking mosquitocide targeting inward rectifier potassium channels in vectors of Zika virus and malaria” (Scientific Reports, 2016).

This data set relates to An. gambiae Akron strain. Conditions: topical; cited from earlier work.

With `CC1(C)C(C=C(Cl)Cl)C1C(=O)OCc1cccc(Oc2ccccc2)c1` (stereo not shown) [Permethrin], the “Resistance Ratio (ED50 Akron/ED50 G3)” value is 33.
